Data reported in PubChem BioAssay AID2685 (National Center for Advancing Translational Sciences (NCATS), 2010).
Some of the results follow. The main result of the screen is listed elsewhere. These columns were measured beside it and carry no call. Most of these compounds were active or inconclusive in the main read-out, so they are no random draw. The note in brackets gives the kind of curve behind each potency; many fits are weak.

Experiment: qHTS Assay for Lipid Storage Modulators in Drosophila S3 Cells;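 for cell number change: cells counted by Cell Tracker Red CMTPX staining in the red channel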
Conditions: BODIPY lipid droplet fluorescence, 18-24 h; for cell number change: measured here: cell count max response, cells fed with added oleic acid
How it was run: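 Laser-scanning cytometry quantifies lipid droplet accumulation (500–530 nm total intensity; droplet/cell object ratio) in oleic acid-fed (400 uM added) Drosophila S3 cells treated with a concentration series. 20 uM Triacsin C defined 100% inhibition.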

[1] = measured here: lipid fluorescence (Fed channel) AC50, cells fed with added oleic acid
[2] = measured here: cell number channel AC50, cells fed with added oleic acid

| SMILES | cell number change | AC50 [1] | AC50 [2] |
| --- | --- | --- | --- |
| O=C(O)CCC(NS(=O)(=O)c1ccc(N2CCCC2=O)cc1)C(=O)O (stereo not given) | -4.73% | 0.0291 µM [rising, full curve] |  |
| CC(=O)N(Cc1cccs1)Cc1cc2ccc(C)c(C)c2nc1Cl | 35.4% |  | 29.1 µM [rising, single point] |
| Cc1ccc(-n2c(=O)c(C#N)cc3c(=O)n4cccc(C)c4nc32)cc1 | 17.2% | 0.58 µM [rising, single point] |  |
| CC(C)c1ccccc1OCC(=O)Nc1ccccc1C(=O)N1CCOCC1 | -39.2% | 14.6 µM [falling, partial curve] | 14.6 µM [falling, single point] |
| CCc1ccc(/C(C)=N/Nc2cc(Cl)nc(C)n2)cc1 |  |  | 0.651 µM [falling, single point] |
| COc1cc(/C=C/C(=O)OCC(=O)Nc2cc(C(F)(F)F)ccc2N2CCOCC2)ccc1O | 46.1% |  | 29.1 µM [rising, single point] |
| C=CCOC(=O)C1=C(C)OC(N)=C(C#N)C1c1ccc(F)cc1 (stereo not given) | -16.8% | 1.3 µM [rising, full curve] |  |
| CNC(=S)NNC(=O)c1oc2nc(-c3ccccc3)cc(C)c2c1N | 15.4% | 5.8 µM [rising, single point] |  |
| S=C1NC2=C(C(c3ccc(Br)cc3)N1)N1CCC2CC1 (stereo not given) | 12.8% |  |  |
| O=C(Oc1ccc(-c2cnc3ccccc3n2)cc1)c1ccc(Br)o1 | -46.2% | 16.4 µM [falling, single point] | 20.6 µM [falling, partial curve] |
| COC(=O)C1CCN(Cc2c(C(=O)N3C[C@@H](C)O[C@@H](C)C3)nc3ccc(Cl)cn23)CC1 | -9.57% |  |  |
| CC(=O)Oc1cccc(N2C(=O)c3ccc(C(=O)Nc4c[nH]c(=O)[nH]c4=O)cc3C2=O)c1 |  | 6.51 µM [rising, single point] | 2.06 µM [rising, single point] |
| COc1ccc(CN=C2NN=C(c3ccc(Cl)cc3)CS2)cc1 | 16.2% |  |  |
| Cc1ccc(NC(=O)CC(O)(C(F)(F)F)C(F)(F)F)c(Br)c1 | -48.9% |  | 29.1 µM [falling, single point] |
| c1cncc(Nc2nc(-c3ccncc3)cs2)c1 | -6.08% | 2.06 µM [rising, full curve, poor fit] |  |
| CCN(CC(=O)Nc1ccc(NC(C)=O)cc1)C(=O)/C=C/c1cn(-c2ccccc2)nc1-c1ccc(C)cc1 | -5.48% | 0.0461 µM [rising, full curve, poor fit] |  |
| COc1ccccc1/C=C1\SC(=S)N(CCC(=O)NCCCn2ccnc2)C1=O | -4.29% | 0.461 µM [falling, single point] |  |
| O=C(O)C1CCN(c2ccccc2[N+](=O)[O-])CC1 | -8.53% |  |  |
| Cc1cccc(N2C(=O)C3C4C=CC(C4)C3C2=O)c1 (stereo not given) | 5.01% | 0.0731 µM [falling, full curve, poor fit] |  |

Some of the entries so far, as tab-separated lines.
SMILES	cell number change	AC50 [1]	AC50 [2]
O=C(Oc1ccc(-c2cnc3ccccc3n2)cc1)c1ccc(Br)o1	-46.2%	16.4 µM [falling, single point]	20.6 µM [falling, partial curve]
COC(=O)C1CCN(Cc2c(C(=O)N3C[C@@H](C)O[C@@H](C)C3)nc3ccc(Cl)cn23)CC1	-9.57%		

More compounds follow.

| SMILES | cell number change | AC50 [1] | AC50 [2] |
| --- | --- | --- | --- |
| Cc1ccc(N(CC(=O)NC2CCCCC2)C(=O)CNC(=O)c2ccco2)cc1F | 38.2% |  | 29.1 µM [rising, single point] |
| CC(NC(=O)CCNS(=O)(=O)c1ccc2c(c1)c(=O)n(C)c(=O)n2C)c1ccccc1 (stereo not given) | -16.9% | 0.291 µM [falling, full curve] |  |
| Cc1nn(CC(=O)NC(=O)c2ccccc2)c(C)c1[N+](=O)[O-] | 21.6% | 32.6 µM [rising, single point] |  |
| Cc1cccc(/C(N)=N/OC(=O)CCc2ccccc2)c1 | -26.4% | 6.51 µM [falling, full curve, poor fit] |  |
| Cc1cccc(-n2c(CNC(=O)c3ccc(S(=O)(=O)N(C)C)cc3)nnc2SCC(=O)Nc2ccc(F)cc2)c1 | -6.68% |  | 0.731 µM [rising, single point] |
| CN(C)S(=O)(=O)c1cc(NC(=O)CN2CCCc3ccccc32)ccc1Cl | -24.4% | 6.51 µM [rising, single point] |  |
| COc1cc(C(F)(F)F)nc2ccc(C#CCOC(=O)Nc3ccccc3)cc12 |  | 29.1 µM [rising, single point] |  |
| COCCCn1c(SCc2ccc(OC)cc2)nc2cc(OC)c(OC)cc2c1=N | 0.169% | 13 µM [falling, single point] |  |
| CC(C)COc1ccc(C(=O)OCC(=O)NCCC2=CCCCC2)cc1 | 44.1% |  | 10.3 µM [rising, partial curve] |
| O=C(NCc1ccc(Cl)cc1Cl)C1CCN(S(=O)(=O)c2ccc3c(c2)OCCCO3)CC1 | -5.22% | 29.1 µM [falling, single point] |  |
| Cc1cc(C)n(C(=O)CSc2nc3ccccc3o2)n1 | -13.6% | 0.146 µM [falling, full curve, poor fit] |  |
| COc1ccc(N(CC(=O)Nc2ccc(C)c(C)c2)C2=NC3CS(=O)(=O)CC3S2)cc1 (stereo not given) | -3.75% | 1.46 µM [rising, partial curve, poor fit] |  |
| Cc1ccc2sc(N(CCCN(C)C)C(=O)c3ccc(S(=O)(=O)N(C)Cc4ccccc4)cc3)nc2c1C | -80.4% |  | 14.6 µM [falling, partial curve] |
| COc1ccc(OC)c(S(=O)(=O)Nc2ccc(C)c(C)c2)c1 |  | 3.66 µM [rising, partial curve, poor fit] | 0.116 µM [rising, full curve, poor fit] |
| c1ccc(-c2cncnc2)nc1 | -2.82% | 2.31 µM [rising, partial curve, poor fit] |  |
| CCn1cc(C(=O)N(CCCN2CCOCC2)Cc2ccco2)c(=O)c2ccc(C)nc21 |  | 6.51 µM [falling, single point] | 6.51 µM [falling, single point] |
| CCCNS(=O)(=O)c1ccc(Oc2ncc(C(F)(F)F)cc2Cl)cc1 | -13.7% | 29.1 µM [falling, single point] |  |
| Cc1ccc(S(=O)(=O)Nc2ccc(=O)n(Cc3ccc(Cl)c(Cl)c3)c2)cc1 | -6.97% |  |  |
| COc1ccc(/C=C/C(=O)NCCCN2CCCC2)cc1 |  | 0.146 µM [rising, partial curve, poor fit] |  |
